Test results: paper PMC6611789
No constants are given. Whether binding was seen depends on the method and setting. In cells and extracts the contact can be indirect. Some entries that bind do so weakly or less than the wild type.

Molecular target: T1, endogenous Nox2 (neonatal rat cardiomyocytes) (rat (endogenous in NRCMs)) (UniProt Q9ERL1)
T1 sequence: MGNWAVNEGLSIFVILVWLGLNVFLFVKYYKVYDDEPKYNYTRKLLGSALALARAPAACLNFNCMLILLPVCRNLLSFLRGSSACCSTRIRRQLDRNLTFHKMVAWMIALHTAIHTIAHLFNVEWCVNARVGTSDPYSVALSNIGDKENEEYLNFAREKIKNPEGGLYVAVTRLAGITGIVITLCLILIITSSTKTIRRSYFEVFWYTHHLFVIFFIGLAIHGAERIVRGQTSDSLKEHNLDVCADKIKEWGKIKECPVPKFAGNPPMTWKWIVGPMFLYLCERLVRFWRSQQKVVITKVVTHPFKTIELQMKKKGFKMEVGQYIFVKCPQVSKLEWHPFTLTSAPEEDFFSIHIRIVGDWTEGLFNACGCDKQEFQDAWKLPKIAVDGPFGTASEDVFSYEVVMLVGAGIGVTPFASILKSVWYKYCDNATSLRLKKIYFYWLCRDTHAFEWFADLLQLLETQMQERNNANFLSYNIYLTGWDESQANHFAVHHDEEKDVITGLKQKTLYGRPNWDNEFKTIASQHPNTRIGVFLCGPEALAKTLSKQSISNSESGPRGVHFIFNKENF
Assay: proximity ligation; Duolink PLA Fluorescence in fixed NRCMs, with or without 1 mM ATP for 12 h; rabbit anti-TRPC3 and mouse anti-Nox2

binding: binds
B1: endogenous TRPC3 (neonatal rat cardiomyocytes) (protein, UniProt Q9JMI9 1-909)
chain: MSTKVKKCREPARVTLPAPEEEDGEAEGAEPQRRRRGWRGVNGGLEPPCPRAPPSPGPDASSEGSPSRWRTAGMRDKGRRQAVRGPAFMFGARGPSLTAEEERFLDAAEYGNIPVVRKMLEESRTLNVNCVDYMGQNALQLAVGNEHLEVTELLLKKENLARIGDALLLAISKGYVRIVEAILGHPGFAASRRLTLSPCEQELRDDDFYAYDEDGTRFSPDITPIILAAHCHKYEVVHLLLLKGARIERPHDYFCRCADCAEKQRLDAFSHSRSRINAYKGLASPAYLSLSSEDPVLTALELSNELAKLANIEKEFKNDYRKLSMQCKDFVVGVLDLCRDSEEVEAILNGDLESVEPLERHGHKASLSRVKLAIKYEVKKFVAHPNCQQQLLTIWYENLSGLREQTIAIKCLVVLVVALGLPFLAIGYWIAPCSRLGKILRSPFMKFVAHAASFIIFLGLLVFNASDRFEGITTLPNITVIDYPKQIFRVKTTQFTWTEMLIMVWVLGMMWSECKELWLEGPREYIVQLWNVLDFGMLSIFIAAFTARFLAFLQATKAQQYVDSHVQESDLSEVTLPPEVQYFTYARDKWLPSDPQIISEGLYAIAVVLSFSRIAYILPANESFGPLQISLGRTVKDIFKFMVLFIMVFLAFMIGMFILYSYYLGAKVNPAFTTVEESFKTLFWSIFGLSEVTSVVLKYDHKFIENIGYVLYGIYNVTMVVVLLNMLIAMINSSYQEIEDDSDVEWKFARSKLWLSYFDDGKTLPPPFSLVPSPKSFVYFIMRITNFSKCRRRRLQKDLELGMGNSKSRLNLFTQSNSRVFESHSFNSILNQPTRYQQIMKRLIKRYVLKAQVDKENDEVNEGELKEIKQDISSLRYELLEDKSQATEELAILIHKLSEKLNPSALRCE
